Measured values from PubChem BioAssay AID504834 (National Center for Advancing Translational Sciences (NCATS), 2011).
The campaign covered roughly 320,000 compounds. About 22,000 (6.9%) were called active. Inconclusive results, whose numbers are uncertain, are shown with a selection of clear calls. Calls follow the shape of the dose curve; as a rule, active = well fitted inhibition curve with a large enough effect; inconclusive = small, poorly fitted or top-dose-only effect, or another doubt; inactive = no such curve, though single readings can be large or run the other way. Potencies of inconclusive entries are doubtful fits and often do not repeat.

Assay: Primary qHTS for delayed death inhibitors of the malarial parasite plastid, 96 hour incubation
Details: P. falciparum luciferase reporter growth; series mostly up to 28.7 µM; activity change, negative = inhibition: at the top concentration
Procedure, shortened: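 Readout is luminescence from an integrated firefly luciferase in P. falciparum. Red cells, 2% hematocrit and 0.05% parasitemia final, were cultured with compound through two parasite generations (96 hours) at 37 C, 5% CO2.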
% is scaled to controls: 0 for no effect and ±100 for the full control effect; potency is read from the fitted curve at half-maximal effect.

Structure (SMILES)	Potency	activity change, negative = inhibition
Cc1cc(C(=O)Nc2c(F)c(F)c(F)c(F)c2F)n(-c2ccccc2)n1	inconclusive: 8.28 µM [inhibitor, single point]	
COc1c(O[C@@H]2O[C@H](CO)[C@@H](O)[C@H](O)[C@H]2O)cc2c(c1OC)-c1ccc(SC)c(=O)cc1C(NC(C)=O)CC2 (stereo partly drawn)		inactive: 12.8%
CCn1c(NCc2cc(Br)ccc2NS(=O)(=O)c2ccc(C)cc2)nc2ccccc21	active: 4.65 µM	
NC(=O)C1CCN(C(=O)CC2C(=O)NCCN2Cc2cccc(Oc3ccccc3)c2)CC1 (stereo not drawn)		inactive: 2.05%
CCOc1ccc(C2C3=C(CCCC3=O)Nc3ccc4ncccc4c32)cc1 (stereo not drawn)	inconclusive: 18.5 µM [inhibitor, single point]	
Cc1ccc2[nH]c(=O)c3cc(C(=O)N(CCCOC(C)C)Cc4ccco4)sc3c2c1	active: 5.86 µM	
O=C(O)Cn1c(=O)n(Cc2ccccc2)c2ccccc21	inconclusive: 18.5 µM [inhibitor, single point]	
CCOC(=O)Nc1ccc(Cc2ccncc2)cc1	inconclusive: 16.5 µM [inhibitor, partial curve, poor fit]	
CS(=O)(=O)N1CCCC(C(=O)Nc2ccc(F)cc2)C1 (stereo not drawn)	inconclusive: 18.5 µM [inhibitor, single point]	
O=C(NCc1ccncc1)C(=O)NCC1OCCN1S(=O)(=O)c1ccc(Br)cc1 (stereo not drawn)	inconclusive: 10.4 µM [inhibitor, single point]	
COc1ccc(-n2nnnc2SCC(=O)Nc2nc3c(s2)CCCC3)cc1		inactive: 93.3%
CCS(=O)(=O)N1Cc2ccccc2CC1C(=O)NCCc1c[nH]c2ccccc12 (stereo not drawn)	inconclusive: 0.465 µM [inhibitor, full curve, poor fit]	
O=C(Cc1cccc2ccccc12)Nc1nc(-c2cccc([N+](=O)[O-])c2)cs1	inconclusive: 18.5 µM [inhibitor, single point]	
CCOC(=O)C1CCCN(S(=O)(=O)c2ccc3c(c2)N(C)C(=O)CC(=O)N3C)C1 (stereo not drawn)	inconclusive: 5.22 µM [inhibitor, single point]	
Cc1cccc(NC(=O)N2CCN(Cc3ccc(Cl)cc3)CC2)c1	inconclusive: 2.62 µM [inhibitor, full curve, poor fit]	
CC(NS(=O)(=O)c1ccc(OCC(=O)N2CCCC2)cc1)c1ccccc1 (stereo not drawn)	inconclusive: 18.5 µM [inhibitor, single point]	
COc1ccc(C2/C(=C(\O)c3ccc4c(c3)CC(C)O4)C(=O)C(=O)N2Cc2cccnc2)c(OC)c1 (stereo not drawn)	inconclusive: 16.5 µM [inhibitor, single point]	
COc1cc(OC)cc(C(=O)N(Cc2cc3cc(C)ccc3[nH]c2=O)C(C)C)c1	inconclusive: 0.465 µM [inhibitor, full curve]	
Cc1ccc(S(=O)(=O)N2CCN(C(=O)c3ccc(Br)o3)CC2)c(C)c1	inconclusive: 0.415 µM [inhibitor, full curve]	
O=C(N/N=C/c1ccccn1)c1ccc(Br)o1	inconclusive: 0.104 µM [inhibitor, full curve, poor fit]	
CS(=O)(=O)NCc1ccc(C(=O)NCCOc2ccccc2)cc1		inactive: -3.58%
COc1ccc(/C=C2\CCC(C3CCCC3)C2=O)cc1Cn1cccn1 (stereo not drawn)		inactive: 2.41%
Cc1nc(-n2cc(F)c(=O)[nH]c2=O)c2nc(C)oc2n1	inconclusive: 9.28 µM [inhibitor, partial curve]	

Structure (SMILES)	Potency	activity change, negative = inhibition
CCOc1ccccc1NC(=S)N1CCN(c2cccc(C)c2C)CC1	active: 1.65 µM	
COc1ccc(CCNC(=O)CSc2nc(O)c(C(C)C)c(=O)[nH]2)cc1OC		inactive: 13.6%
Cc1cccc(NC(=O)CSc2nnc(-c3cc(C)n(-c4ccccc4)c3C)o2)c1C	inconclusive: 11.7 µM [inhibitor, single point]	
Cc1nn(-c2cccc(Cl)c2)nc1C(=O)O		inactive: -1.22%
CCOc1ccc(NS(=O)(=O)c2cc(C(=O)NCCCN3CCOCC3)ccc2C)cc1	inconclusive: 18.5 µM [inhibitor, single point]	
C/C=C/c1ccc(OCCCn2cncn2)c(OC)c1		inactive: 6.37%
CCOC(=O)Cc1nnc(NC(=O)CSc2nnc3c(n2)[nH]c2ccccc23)s1	inconclusive: 14.7 µM [inhibitor, single point]	
COc1ccccc1NC(=O)C(=O)NCC(c1ccco1)N1CCc2ccccc2C1 (stereo not drawn)	inconclusive: 9.28 µM [inhibitor, single point]	
C/C(=N\NC(=O)CNC(=O)c1ccc(Br)cc1)c1ccco1		inactive: -0.427%
COc1cccc(NC(=O)CSc2nncn2-c2ccccn2)c1		inactive: 1.58% [at 5.75 µM]
CCN(CC)S(=O)(=O)c1ccc(N2CCN(C)CC2)c(NC(=O)CSCC(=O)Nc2cccc(C)c2)c1	inconclusive: 13.1 µM [inhibitor, single point]	
CC(=O)n1cc([C@@H]2C=C(C(=O)N3CCN(Cc4ccc5c(c4)OCO5)CC3)O[C@H](OCCCCO)C2)c2ccccc21	active: 11.7 µM	
O=C(Cn1c(-c2cncs2)nc2ccccc21)NC1CCCC1	active: 9.28 µM	
CCOc1ccccc1NC(=O)Cc1cccs1		inactive: 341%
COc1ccc(N(CC(=O)Nc2cccc(C(C)=O)c2)S(=O)(=O)c2ccc(NC(C)=O)cc2)cc1	inconclusive: 5.86 µM [inhibitor, partial curve, poor fit]	
Cc1onc(-c2ccccc2Cl)c1C(=O)NCc1nc(-c2ccc(C(F)(F)F)cc2)no1	inconclusive: 18.5 µM [inhibitor, single point]	
CN(c1ccc([N+](=O)[O-])cc1C(N)=O)C1CCCCC1	inconclusive: 9.28 µM [inhibitor, single point]	
Cc1nc(-c2ccc(NC(=O)c3ccc(Br)o3)cc2)cs1		inactive: 20.7%
CCOP(=O)(OCC)C(Nc1cccc([N+](=O)[O-])c1)c1ccc(N(C)C)cc1 (stereo not drawn)	inconclusive: 1.85 µM [inhibitor, full curve, poor fit]	
O=C(Nc1ccc(O)c(C(=O)O)c1)Oc1ccccc1		inactive: 35.4%
O=C(NCCCN1CCOCC1)c1cc(-c2ccc3c(c2)OCO3)nc2ccccc12	inconclusive: 0.465 µM [inhibitor, partial curve, poor fit]	
COC(=O)CN1C(=S)N(c2ccc(Cl)cc2)C(=O)C1CC(=O)Nc1ccc(F)cc1 (stereo not drawn)	inconclusive: 0.415 µM [inhibitor, partial curve, poor fit]	
COC(=O)/C(C#N)=C/c1c(N2CCN(c3ccc(OC)cc3)CC2)nc2c(C)cccn2c1=O	inconclusive: 10.4 µM [inhibitor, single point]	

Structure (SMILES)	Potency	activity change, negative = inhibition
CCn1c(CC(=O)Nc2ccccc2)nnc1SCC(=O)Nc1nnc(C)s1		inactive: -17.8%
CC(=O)N/C(=C\c1ccccc1)C(=O)N1CCOCC1	inconclusive: 1.31 µM [inhibitor, partial curve, poor fit]	
Cc1ccc(/C=N/NC(=O)c2ccc(-n3cccc3)cc2)o1	inconclusive: 18.5 µM [inhibitor, single point]	
CCOc1ccc(CCNC(=O)CN2C(=O)NC3(CCc4ccccc43)C2=O)cc1OCC (stereo not drawn)	inconclusive: 8.28 µM [inhibitor, partial curve]	
COc1ccc(N(C)S(=O)(=O)c2c(C)[nH]c(=O)[nH]c2=O)cc1	inconclusive: 10.4 µM [inhibitor, single point]	
COc1ccc(CNC(=O)Cn2nc(C)c3c(C)n(-c4ccc(C)cc4)nc3c2=O)cc1OC	inconclusive: 10.4 µM [inhibitor, partial curve, poor fit]	
Cc1c(C(=O)N2CCN(C)CC2)oc2ccc(Br)cc12	inconclusive: 11.7 µM [inhibitor, single point]	
CCOC(=O)N1CCN(C(=S)Nc2cccc(C)c2)CC1	inconclusive: 18.5 µM [inhibitor, single point]	
O=C(CN1CC[n+]2c(-c3ccccc3)csc21)c1ccc(Br)cc1	inconclusive: 18.5 µM [inhibitor, single point]	
Cc1ccc(NC(=S)NNC(=O)CSc2nnc(-c3ccc(Cl)cc3)n2C2CCCCC2)cc1	inconclusive: 0.928 µM [inhibitor, partial curve]	
COc1ccccc1NS(=O)(=O)c1cccc(C(=O)NN)c1		inactive: 2.92%
CSCCC(NC(=O)c1ccccc1Br)C(=O)NNC(=O)c1ccncc1 (stereo not drawn)		inactive: -1.09%
COc1ccc(CCC(C)NCC2CCCCC2)cc1 (stereo not drawn)	active: 13.1 µM	
Cc1cccn2c(CNC3CCCc4ccccc43)c(C(=O)N3CCCCC3)nc12 (stereo not drawn)		inactive: -18.4%
O=C(Cn1c(=O)n(CCC(=O)N2CCc3ccccc3C2)c(=O)c2ccccc21)NCC1CCCO1 (stereo not drawn)	inconclusive: 18.5 µM [inhibitor, partial curve, poor fit]	
O=c1[nH]c(O)c(N=Nc2ccc(S(=O)(=O)N3CCOCC3)cc2)c(=O)[nH]1	inconclusive: 1.31 µM [inhibitor, full curve]	
Cc1cccc2sc(NC(=O)c3ccc(NS(=O)(=O)c4cccs4)cc3)nc12		inactive: -28%
Cc1ccc(/C=C/C(=O)NC2=NCCS2)cc1	inconclusive: 11.7 µM [inhibitor, single point]	
Cc1cccc(NC(=O)C2CCCN(S(=O)(=O)c3cccc4cccnc34)C2)c1 (stereo not drawn)	inconclusive: 18.5 µM [inhibitor, single point]	
COc1ccc2[nH]cc(CCNC(=O)Cc3ccc(F)cc3)c2c1	inconclusive: 13.1 µM [inhibitor, single point]	
COc1ccc(N)cc1-n1c(C)ccc1C		inactive: 34.8%
CS(=O)(=O)Oc1ccc2c(c1)O/C(=C\C=C\c1ccccc1)C2=O	inconclusive: 18.5 µM [inhibitor, partial curve, poor fit]	

21 of the compounds above, with bars between the fields:
Structure (SMILES) | Potency | activity change, negative = inhibition
COC(=O)/C(C#N)=C/c1c(N2CCN(c3ccc(OC)cc3)CC2)nc2c(C)cccn2c1=O | inconclusive: 10.4 µM [inhibitor, single point] | 
CCn1c(CC(=O)Nc2ccccc2)nnc1SCC(=O)Nc1nnc(C)s1 |  | inactive: -17.8%
CC(=O)N/C(=C\c1ccccc1)C(=O)N1CCOCC1 | inconclusive: 1.31 µM [inhibitor, partial curve, poor fit] | 
Cc1ccc(/C=N/NC(=O)c2ccc(-n3cccc3)cc2)o1 | inconclusive: 18.5 µM [inhibitor, single point] | 
CCOc1ccc(CCNC(=O)CN2C(=O)NC3(CCc4ccccc43)C2=O)cc1OCC (stereo not drawn) | inconclusive: 8.28 µM [inhibitor, partial curve] | 
COc1ccc(N(C)S(=O)(=O)c2c(C)[nH]c(=O)[nH]c2=O)cc1 | inconclusive: 10.4 µM [inhibitor, single point] | 
COc1ccc(CNC(=O)Cn2nc(C)c3c(C)n(-c4ccc(C)cc4)nc3c2=O)cc1OC | inconclusive: 10.4 µM [inhibitor, partial curve, poor fit] | 
Cc1c(C(=O)N2CCN(C)CC2)oc2ccc(Br)cc12 | inconclusive: 11.7 µM [inhibitor, single point] | 
CCOC(=O)N1CCN(C(=S)Nc2cccc(C)c2)CC1 | inconclusive: 18.5 µM [inhibitor, single point] | 
O=C(CN1CC[n+]2c(-c3ccccc3)csc21)c1ccc(Br)cc1 | inconclusive: 18.5 µM [inhibitor, single point] | 
Cc1ccc(NC(=S)NNC(=O)CSc2nnc(-c3ccc(Cl)cc3)n2C2CCCCC2)cc1 | inconclusive: 0.928 µM [inhibitor, partial curve] | 
COc1ccccc1NS(=O)(=O)c1cccc(C(=O)NN)c1 |  | inactive: 2.92%
CSCCC(NC(=O)c1ccccc1Br)C(=O)NNC(=O)c1ccncc1 (stereo not drawn) |  | inactive: -1.09%
COc1ccc(CCC(C)NCC2CCCCC2)cc1 (stereo not drawn) | active: 13.1 µM | 
Cc1cccn2c(CNC3CCCc4ccccc43)c(C(=O)N3CCCCC3)nc12 (stereo not drawn) |  | inactive: -18.4%
O=C(Cn1c(=O)n(CCC(=O)N2CCc3ccccc3C2)c(=O)c2ccccc21)NCC1CCCO1 (stereo not drawn) | inconclusive: 18.5 µM [inhibitor, partial curve, poor fit] | 
O=c1[nH]c(O)c(N=Nc2ccc(S(=O)(=O)N3CCOCC3)cc2)c(=O)[nH]1 | inconclusive: 1.31 µM [inhibitor, full curve] | 
Cc1cccc2sc(NC(=O)c3ccc(NS(=O)(=O)c4cccs4)cc3)nc12 |  | inactive: -28%
Cc1ccc(/C=C/C(=O)NC2=NCCS2)cc1 | inconclusive: 11.7 µM [inhibitor, single point] | 
Cc1cccc(NC(=O)C2CCCN(S(=O)(=O)c3cccc4cccnc34)C2)c1 (stereo not drawn) | inconclusive: 18.5 µM [inhibitor, single point] | 
COc1ccc2[nH]cc(CCNC(=O)Cc3ccc(F)cc3)c2c1 | inconclusive: 13.1 µM [inhibitor, single point] | 
